Patent US12649748B2, “Wee1 inhibitor and use thereof” (JIANGSU TASLY DIYI PHARMACEUTICAL CO., LTD., priority 2021, dated 2026)

Sequences of proteins named here, by UniProt entry; tags and fusion partners are left off.
UniProt P30291, whole entry: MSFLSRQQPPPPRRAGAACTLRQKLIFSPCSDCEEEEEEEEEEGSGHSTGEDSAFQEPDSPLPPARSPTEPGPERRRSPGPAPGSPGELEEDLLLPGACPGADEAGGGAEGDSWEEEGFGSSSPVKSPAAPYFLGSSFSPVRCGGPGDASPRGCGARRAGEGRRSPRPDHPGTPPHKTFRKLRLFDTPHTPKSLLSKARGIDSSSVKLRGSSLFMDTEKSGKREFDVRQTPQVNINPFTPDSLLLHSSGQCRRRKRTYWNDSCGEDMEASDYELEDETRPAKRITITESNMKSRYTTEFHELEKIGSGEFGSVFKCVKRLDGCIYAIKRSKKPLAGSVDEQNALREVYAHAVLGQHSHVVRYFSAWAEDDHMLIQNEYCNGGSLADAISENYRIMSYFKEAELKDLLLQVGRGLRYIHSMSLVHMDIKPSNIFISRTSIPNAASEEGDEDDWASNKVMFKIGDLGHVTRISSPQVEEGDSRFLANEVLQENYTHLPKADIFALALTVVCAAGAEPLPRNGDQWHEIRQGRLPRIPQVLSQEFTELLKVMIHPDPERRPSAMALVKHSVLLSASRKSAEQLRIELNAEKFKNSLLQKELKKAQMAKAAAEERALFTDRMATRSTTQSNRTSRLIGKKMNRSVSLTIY

Assays:
MIA Paca-2 cells = experiment: Anti-proliferative effect by Cell Titer-Glo, MIA Paca-2; format: cell-based; conditions: read-out: IC50 measured value MIA Paca-2, 3 days
Procedure: (§1) Compound solutions of different concentration gradients were prepared. DMSO was dissolved to a concentration of 10 mM test compound and 10 mM reference compound AZD1775, and the compounds were serially diluted in culture medium for a total of 9 dose points, with 2 parallel replicates set at each concentration. The cell growth group without compound was used as a positive control (maximum signal control) and the medium was used as a negative control (minimum signal control), while ensuring that the final level of DMSO in each reaction well was 0.2%. […]
(§2) The 384-well plates were removed from the cell incubator and allowed to equilibrate for 1 h to room temperature. 25 ul of Cell Titer-Glo assay was added to each well, lysed on a shaker for 2 min and then read out (Luminescence) using a BMG PHERAStar after 10 min incubation. Calculate the inhibition rate from the luminescence signal: first calculate the average of the positive control (maximum signal control) and the negative control (minimum signal control).
(§3) [formula] to calculate the rate of inhibition of the cells by different concentrations of the compounds. The IC50 of the compound on cell activity inhibition was calculated by fitting a log(inhibitor) vs. response-Variable slope model to GraphPad Prism 6. […]

H1299 cells = experiment: Anti-proliferative effect by Cell Titer-Glo, H1299; format: cell-based; conditions: read-out: IC50 measured value H1299, 3 days
Procedure: as §1, §2, §3

Wee1 protein = Wee1 protein (Homo sapiens, UniProt P30291); experiment: Binding of compound to Wee1 protein and Tracer 178 by TR-FRET; conditions: read-out: IC50 measured value, inhibitory activity against Wee1 kinase

- IC50 (MIA Paca-2 cells): 100 to 1000 nM
- IC50 (H1299 cells): 1000 to 5000 nM
- IC50 (Wee1 protein): 1 to 10 nM
Structure (SMILES): CN1Cc2cc(Nc3ncc4cnn(-c5cccc(N=S(C)(C)=O)n5)c4n3)ccc2C(C)(C)C1

The structures given here were assigned with low confidence; some may be wrong.
